Measured values as given in the supplement of paper PMC10849652.
The list shows a part of the results.

Sequences of proteins named here, by UniProt entry; tags and fusion partners are left off. A change or cut given only in a name is not applied to a line headed by its entry.
UniProt P49023, whole entry, looked up: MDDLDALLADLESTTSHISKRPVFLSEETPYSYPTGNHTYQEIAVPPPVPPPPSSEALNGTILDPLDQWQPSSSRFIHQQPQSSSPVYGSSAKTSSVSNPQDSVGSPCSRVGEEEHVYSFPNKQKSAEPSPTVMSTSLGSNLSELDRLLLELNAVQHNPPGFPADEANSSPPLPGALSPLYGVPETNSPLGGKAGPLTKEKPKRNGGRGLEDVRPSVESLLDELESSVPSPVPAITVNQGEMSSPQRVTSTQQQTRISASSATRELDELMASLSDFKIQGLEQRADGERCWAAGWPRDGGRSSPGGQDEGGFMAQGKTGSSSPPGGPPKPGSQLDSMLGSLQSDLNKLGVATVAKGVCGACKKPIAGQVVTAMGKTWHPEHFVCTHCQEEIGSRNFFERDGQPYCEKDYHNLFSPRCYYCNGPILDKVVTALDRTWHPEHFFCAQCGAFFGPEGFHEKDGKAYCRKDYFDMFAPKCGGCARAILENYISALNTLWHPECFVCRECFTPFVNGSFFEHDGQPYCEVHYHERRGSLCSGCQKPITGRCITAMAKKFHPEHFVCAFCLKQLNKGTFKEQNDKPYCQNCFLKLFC
UniProt Q9ULZ3, whole entry, looked up: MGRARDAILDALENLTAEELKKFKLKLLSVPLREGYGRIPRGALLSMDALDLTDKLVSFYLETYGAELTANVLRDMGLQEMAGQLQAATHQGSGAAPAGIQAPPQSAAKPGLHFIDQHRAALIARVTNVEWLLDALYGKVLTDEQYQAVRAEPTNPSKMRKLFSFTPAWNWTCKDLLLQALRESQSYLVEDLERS
UniProt P11233: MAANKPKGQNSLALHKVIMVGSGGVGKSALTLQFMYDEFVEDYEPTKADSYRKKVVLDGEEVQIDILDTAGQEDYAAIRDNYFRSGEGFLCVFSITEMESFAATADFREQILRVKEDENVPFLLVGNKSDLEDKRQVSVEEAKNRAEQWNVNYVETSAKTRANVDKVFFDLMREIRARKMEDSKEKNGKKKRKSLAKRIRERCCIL
UniProt Q9BUV8: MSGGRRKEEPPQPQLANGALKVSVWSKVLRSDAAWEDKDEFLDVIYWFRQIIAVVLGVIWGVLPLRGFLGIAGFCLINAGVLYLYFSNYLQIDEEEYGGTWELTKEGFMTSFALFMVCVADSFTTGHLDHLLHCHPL
UniProt Q92930: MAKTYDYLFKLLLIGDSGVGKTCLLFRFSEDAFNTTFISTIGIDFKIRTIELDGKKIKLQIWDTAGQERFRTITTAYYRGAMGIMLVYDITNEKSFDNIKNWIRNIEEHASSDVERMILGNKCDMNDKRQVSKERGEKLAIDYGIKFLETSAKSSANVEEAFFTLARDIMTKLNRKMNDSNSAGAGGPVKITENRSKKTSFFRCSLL
UniProt Q9NP72: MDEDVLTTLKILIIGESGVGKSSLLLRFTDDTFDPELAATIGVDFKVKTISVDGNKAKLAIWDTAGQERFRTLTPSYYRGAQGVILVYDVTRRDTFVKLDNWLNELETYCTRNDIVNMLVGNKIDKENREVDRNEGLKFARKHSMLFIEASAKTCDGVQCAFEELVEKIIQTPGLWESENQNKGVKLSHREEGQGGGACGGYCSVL
UniProt Q9NR77: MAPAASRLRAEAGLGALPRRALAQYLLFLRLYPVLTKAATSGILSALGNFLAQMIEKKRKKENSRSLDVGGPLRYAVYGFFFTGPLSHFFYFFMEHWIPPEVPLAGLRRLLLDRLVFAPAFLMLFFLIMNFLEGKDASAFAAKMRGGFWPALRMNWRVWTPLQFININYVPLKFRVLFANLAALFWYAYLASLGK
UniProt O15315: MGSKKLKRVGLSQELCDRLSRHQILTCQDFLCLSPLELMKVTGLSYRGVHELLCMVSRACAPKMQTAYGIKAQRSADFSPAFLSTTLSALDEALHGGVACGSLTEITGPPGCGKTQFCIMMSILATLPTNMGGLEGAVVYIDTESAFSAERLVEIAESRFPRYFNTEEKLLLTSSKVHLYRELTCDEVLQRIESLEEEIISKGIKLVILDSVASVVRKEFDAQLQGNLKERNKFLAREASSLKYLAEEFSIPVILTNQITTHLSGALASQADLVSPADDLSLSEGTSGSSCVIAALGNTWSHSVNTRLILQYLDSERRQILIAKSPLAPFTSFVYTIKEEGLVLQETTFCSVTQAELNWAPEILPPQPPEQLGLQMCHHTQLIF
UniProt P61019: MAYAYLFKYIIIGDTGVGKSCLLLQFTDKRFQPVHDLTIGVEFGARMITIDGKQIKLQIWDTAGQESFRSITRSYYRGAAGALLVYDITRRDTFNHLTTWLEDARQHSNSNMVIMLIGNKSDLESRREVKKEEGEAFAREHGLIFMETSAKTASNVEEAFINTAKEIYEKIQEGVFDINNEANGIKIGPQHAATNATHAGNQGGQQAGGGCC
UniProt P47897: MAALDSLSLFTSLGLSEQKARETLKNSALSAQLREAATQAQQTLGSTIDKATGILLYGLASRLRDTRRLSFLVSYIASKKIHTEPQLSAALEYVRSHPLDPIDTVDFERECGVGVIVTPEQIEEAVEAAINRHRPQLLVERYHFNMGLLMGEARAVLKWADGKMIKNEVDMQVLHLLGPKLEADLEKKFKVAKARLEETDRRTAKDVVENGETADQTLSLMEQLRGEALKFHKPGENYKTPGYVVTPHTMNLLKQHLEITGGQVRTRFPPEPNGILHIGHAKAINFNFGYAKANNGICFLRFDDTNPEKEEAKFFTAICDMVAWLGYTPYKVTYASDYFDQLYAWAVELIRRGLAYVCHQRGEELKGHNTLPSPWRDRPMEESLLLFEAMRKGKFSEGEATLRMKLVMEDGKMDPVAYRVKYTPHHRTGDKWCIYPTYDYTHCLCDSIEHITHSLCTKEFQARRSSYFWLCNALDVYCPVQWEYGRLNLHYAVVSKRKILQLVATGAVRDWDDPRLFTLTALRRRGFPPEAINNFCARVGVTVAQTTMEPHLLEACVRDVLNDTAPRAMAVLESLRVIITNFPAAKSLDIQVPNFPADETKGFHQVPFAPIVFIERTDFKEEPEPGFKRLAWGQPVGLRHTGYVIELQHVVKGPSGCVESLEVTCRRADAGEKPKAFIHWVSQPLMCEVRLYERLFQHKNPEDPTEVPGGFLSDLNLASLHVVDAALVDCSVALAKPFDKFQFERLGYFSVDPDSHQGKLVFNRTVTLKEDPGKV
UniProt Q2TAL8: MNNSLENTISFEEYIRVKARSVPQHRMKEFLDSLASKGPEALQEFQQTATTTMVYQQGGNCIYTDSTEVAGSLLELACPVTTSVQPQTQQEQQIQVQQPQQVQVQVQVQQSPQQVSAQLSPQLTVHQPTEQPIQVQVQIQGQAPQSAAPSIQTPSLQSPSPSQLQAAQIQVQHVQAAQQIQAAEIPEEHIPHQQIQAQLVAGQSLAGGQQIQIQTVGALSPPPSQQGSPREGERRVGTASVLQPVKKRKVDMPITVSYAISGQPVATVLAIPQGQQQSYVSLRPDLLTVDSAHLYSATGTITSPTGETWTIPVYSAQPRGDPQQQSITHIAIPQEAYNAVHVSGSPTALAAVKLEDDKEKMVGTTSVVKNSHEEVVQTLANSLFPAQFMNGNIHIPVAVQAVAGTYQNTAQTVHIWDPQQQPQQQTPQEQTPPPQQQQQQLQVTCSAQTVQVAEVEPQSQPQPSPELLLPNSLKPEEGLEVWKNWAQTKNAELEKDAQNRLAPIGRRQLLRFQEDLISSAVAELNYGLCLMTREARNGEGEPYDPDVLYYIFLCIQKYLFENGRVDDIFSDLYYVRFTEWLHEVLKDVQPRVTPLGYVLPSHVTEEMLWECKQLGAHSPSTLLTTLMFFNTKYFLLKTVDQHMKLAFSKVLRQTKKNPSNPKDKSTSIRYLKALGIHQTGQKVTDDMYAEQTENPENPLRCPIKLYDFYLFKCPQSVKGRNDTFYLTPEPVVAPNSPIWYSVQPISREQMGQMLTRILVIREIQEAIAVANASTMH
UniProt P51151: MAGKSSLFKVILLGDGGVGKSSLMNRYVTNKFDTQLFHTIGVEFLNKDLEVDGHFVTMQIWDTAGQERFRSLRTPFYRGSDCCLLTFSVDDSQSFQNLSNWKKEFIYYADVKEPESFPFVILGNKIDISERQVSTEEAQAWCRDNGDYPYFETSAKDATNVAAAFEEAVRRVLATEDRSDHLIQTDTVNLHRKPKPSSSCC
UniProt P62491: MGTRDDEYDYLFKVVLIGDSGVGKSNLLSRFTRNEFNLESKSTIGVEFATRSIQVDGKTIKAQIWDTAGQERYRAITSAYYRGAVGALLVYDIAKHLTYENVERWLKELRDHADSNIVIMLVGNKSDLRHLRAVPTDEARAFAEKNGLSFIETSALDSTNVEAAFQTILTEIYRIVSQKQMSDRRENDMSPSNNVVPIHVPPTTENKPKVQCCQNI
UniProt Q15276: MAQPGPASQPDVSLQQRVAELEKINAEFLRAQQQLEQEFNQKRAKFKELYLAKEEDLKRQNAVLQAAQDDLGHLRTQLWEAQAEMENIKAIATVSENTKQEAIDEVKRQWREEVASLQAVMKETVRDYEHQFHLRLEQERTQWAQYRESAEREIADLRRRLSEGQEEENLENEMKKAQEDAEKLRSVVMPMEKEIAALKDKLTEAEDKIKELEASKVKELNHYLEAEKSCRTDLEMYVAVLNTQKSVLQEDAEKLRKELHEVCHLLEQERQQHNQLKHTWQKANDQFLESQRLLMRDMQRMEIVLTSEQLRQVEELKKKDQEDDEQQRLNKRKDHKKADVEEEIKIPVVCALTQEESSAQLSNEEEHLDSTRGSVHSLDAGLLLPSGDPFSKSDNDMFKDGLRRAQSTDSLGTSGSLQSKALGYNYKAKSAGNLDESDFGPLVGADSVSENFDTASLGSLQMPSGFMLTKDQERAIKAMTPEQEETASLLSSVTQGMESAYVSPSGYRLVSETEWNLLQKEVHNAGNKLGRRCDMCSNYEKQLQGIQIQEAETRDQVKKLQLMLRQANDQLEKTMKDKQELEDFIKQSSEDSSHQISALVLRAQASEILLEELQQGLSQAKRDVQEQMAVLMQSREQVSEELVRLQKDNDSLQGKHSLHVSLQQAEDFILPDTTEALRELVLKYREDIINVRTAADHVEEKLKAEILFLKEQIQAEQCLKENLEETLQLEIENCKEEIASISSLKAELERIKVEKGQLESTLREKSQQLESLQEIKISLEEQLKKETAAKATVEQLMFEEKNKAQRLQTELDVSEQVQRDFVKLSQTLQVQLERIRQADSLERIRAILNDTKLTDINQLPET
UniProt O14966: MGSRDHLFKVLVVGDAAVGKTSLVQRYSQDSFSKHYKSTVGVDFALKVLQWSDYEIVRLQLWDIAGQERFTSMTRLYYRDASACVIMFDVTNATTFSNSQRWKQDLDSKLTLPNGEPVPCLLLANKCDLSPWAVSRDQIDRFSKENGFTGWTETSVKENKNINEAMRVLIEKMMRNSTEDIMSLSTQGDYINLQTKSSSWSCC
UniProt Q15032: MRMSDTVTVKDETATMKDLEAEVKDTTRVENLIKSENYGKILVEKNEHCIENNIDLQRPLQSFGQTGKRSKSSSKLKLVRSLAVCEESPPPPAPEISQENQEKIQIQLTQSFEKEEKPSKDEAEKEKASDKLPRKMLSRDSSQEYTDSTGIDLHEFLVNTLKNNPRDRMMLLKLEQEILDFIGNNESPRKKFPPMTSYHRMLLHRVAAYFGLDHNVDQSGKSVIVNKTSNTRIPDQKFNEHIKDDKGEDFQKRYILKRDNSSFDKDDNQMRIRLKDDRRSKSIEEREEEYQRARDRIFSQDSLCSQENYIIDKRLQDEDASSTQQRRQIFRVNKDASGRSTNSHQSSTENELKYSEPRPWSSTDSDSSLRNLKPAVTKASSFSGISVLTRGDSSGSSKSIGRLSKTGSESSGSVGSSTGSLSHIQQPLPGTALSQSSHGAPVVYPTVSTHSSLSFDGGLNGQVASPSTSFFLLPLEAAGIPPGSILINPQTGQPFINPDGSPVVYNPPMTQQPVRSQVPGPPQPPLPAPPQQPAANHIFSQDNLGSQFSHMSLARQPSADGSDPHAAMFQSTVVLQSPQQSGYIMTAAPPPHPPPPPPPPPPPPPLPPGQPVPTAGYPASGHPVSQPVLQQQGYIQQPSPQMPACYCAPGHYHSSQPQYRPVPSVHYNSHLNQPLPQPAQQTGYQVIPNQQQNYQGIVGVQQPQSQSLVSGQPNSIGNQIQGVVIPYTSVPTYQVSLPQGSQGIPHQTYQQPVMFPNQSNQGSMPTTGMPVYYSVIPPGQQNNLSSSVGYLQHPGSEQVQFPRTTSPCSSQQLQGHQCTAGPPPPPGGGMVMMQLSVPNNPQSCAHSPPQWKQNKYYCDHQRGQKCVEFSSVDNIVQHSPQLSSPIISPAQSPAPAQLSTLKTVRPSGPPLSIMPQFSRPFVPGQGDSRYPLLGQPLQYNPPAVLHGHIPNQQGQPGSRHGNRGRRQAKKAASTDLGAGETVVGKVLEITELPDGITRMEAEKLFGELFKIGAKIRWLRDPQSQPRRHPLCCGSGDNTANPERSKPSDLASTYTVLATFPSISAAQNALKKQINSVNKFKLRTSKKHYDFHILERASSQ

How the values were obtained:
Experiment in all cases: log2 fold change, soluble protein after heating vs DMSO (PISA); higher = thermal stabilisation; K562 lysate, 10 uM; active = over 0.2 and 3.5 SD of the protein, either way, in both replicates (recomputed)
[1] = compound: C1=CC=C(C=C1)[C@H](COC2=CC3=C(C=C2)NC(=O)N3)NC(=O)C4=CC=CN(C4=O)CC5=CC(=C(C=C5)F)F
Procedure, shortened: (§1)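 Quantification was by TMTpro 16plex LC-MS/MS with equalised channel sums, applied to the supernatant after 21,000xg for 90 min. Samples were crude K562 extract at 1 mg/mL protein in PBS pH 7.4 with 1 mM MgCl2, treated with 10 μM compound for 30 min, heated for 3 min across 48°C-58°C, pooled and brought to 0.5% NP-40 at 4°C. Values are log-two fold changes in thermal stability relative to solvent controls, from duplicates.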

[2] = compound: CC1=C(SC2=C1C(=N[C@H](C3=NN=C(N32)C)CC(=O)N)C4=CC=C(C=C4)Cl)C
Procedure, shortened: as §1

[3] = compound: CC1=C2C(=CC=C1)N=C(N(C2=O)C3=CC=CC=C3C)CN4C=NC5=C(N=CN=C54)N
Procedure, shortened: as §1

[4] = compound: Cc1sc2c(c1C)C(c1ccc(Cl)cc1)=N[C@@H](CC(=O)OC(C)(C)C)c1nnc(C)n1-2
Procedure, shortened: as §1

[5] = compound: c1ccc([C@@H]2C[C@H]2NC2CCNCC2)cc1
Procedure, shortened: as §1

Measured: log2 fold change

PXN isoform 3 (UniProt P49023)
inactive: [1] 0.117 | [2] -0.06 | [3] -0.029 | [4] 0.068 | [5] -0.054

RAB3GAP1 (UniProt Q15042)
inactive: [1] 0.021 | [2] -0.014 | [3] -0.011 | [4] 0.036 | [5] 0.026

RAB30 (UniProt Q15771)
inactive: [1] -0.041 | [2] -0.048 | [3] 0.067 | [4] -0.008 | [5] -0.021

PYCARD (UniProt Q9ULZ3)
inactive: [1] 0.009 | [2] -0.031 | [3] 0.006 | [4] 0.008 | [5] -0.01

RALA (UniProt P11233)
inactive: [1] -0.013 | [2] 0.071 | [3] -0.008 | [4] -0.004 | [5] -0.225

RAB5IF isoform 5 (UniProt Q9BUV8)
inactive: [1] 0.01 | [2] -0.096 | [3] 0.019 | [4] -0.085 | [5] 0.364

RAB8B (UniProt Q92930)
inactive: [1] -0.067 | [2] 0.013 | [3] -0.041 | [4] -0.012 | [5] 0.146

RAB18 (UniProt Q9NP72)
inactive: [1] -0.029 | [2] -0.021 | [3] 0.033 | [4] 0.051 | [5] -0.004

PXMP2 (UniProt Q9NR77)
inactive: [1] -0.036 | [2] 0.041 | [3] -0.003 | [4] -0.003 | [5] -0.019

RAD51B (UniProt O15315)
inactive: [1] 0.072 | [2] -0.042 | [3] 0 | [4] 0.158 | [5] -0.116

RAB10 (UniProt P61026)
inactive: [1] -0.016 | [2] 0.025 | [3] 0.027 | [4] 0.041 | [5] 0.036

RAB2A (UniProt P61019)
inactive: [1] -0.046 | [2] 0.013 | [3] 0.003 | [4] 0.023 | [5] 0.016

Five successive entries already listed, for reference:
RAB3GAP1 (UniProt Q15042)
inactive: [1] 0.021 | [2] -0.014 | [3] -0.011 | [4] 0.036 | [5] 0.026

RAB30 (UniProt Q15771)
inactive: [1] -0.041 | [2] -0.048 | [3] 0.067 | [4] -0.008 | [5] -0.021

PYCARD (UniProt Q9ULZ3)
inactive: [1] 0.009 | [2] -0.031 | [3] 0.006 | [4] 0.008 | [5] -0.01

RALA (UniProt P11233)
inactive: [1] -0.013 | [2] 0.071 | [3] -0.008 | [4] -0.004 | [5] -0.225

RAB5IF isoform 5 (UniProt Q9BUV8)
inactive: [1] 0.01 | [2] -0.096 | [3] 0.019 | [4] -0.085 | [5] 0.364

Remaining list, next part

RAB31 (UniProt Q13636)
inactive: [1] -0.019 | [2] -0.041 | [3] 0.01 | [4] 0.033 | [5] -0.05

QARS (UniProt P47897)
inactive: [1] -0.029 | [2] 0.034 | [3] 0.012 | [4] 0.067 | [5] 0.058

QRICH1 (UniProt Q2TAL8)
inactive: [1] -0.019 | [2] -0.007 | [3] -0.004 | [4] 0.047 | [5] 0.03

QPRT (UniProt Q15274)
inactive: [1] -0.059 | [2] -0.001 | [3] 0.036 | [4] -0.017 | [5] -0.071

RAN (UniProt P62826)
inactive: [1] 0.008 | [2] 0.005 | [3] -0.039 | [4] -0.007 | [5] 0.039

RAB9A (UniProt P51151)
inactive: [1] 0.014 | [2] 0.037 | [3] 0.041 | [4] 0.028 | [5] 0.065

RAC3 (UniProt P60763)
inactive: [3] -0.051 | [5] 0.029

RACK1 (UniProt D6RHH4)
inactive: [1] 0.014 | [2] 0.027 | [3] 0.05 | [5] -0.309

RAB11A (UniProt P62491)
inactive: [1] -0.003 | [2] -0.067 | [3] -0.006 | [4] -0.001 | [5] 0.119

RAB43 (UniProt Q86YS6)
inactive: [1] 0.01 | [2] -0.031 | [4] 0.178 | [5] -0.016

RABEP1 (UniProt Q15276)
inactive: [1] 0.023 | [2] 0.012 | [3] 0.033 | [4] -0.029 | [5] -0.037

RAB29 (UniProt O14966)
inactive: [4] 0.198 | [5] 0.143

R3HDM1 isoform 3 (UniProt Q15032)
inactive: [1] 0.036 | [2] 0.035 | [3] 0.079 | [4] -0.029 | [5] 0.171

RAB6B (UniProt Q9NRW1)
inactive: [1] 0.027 | [2] -0.018 | [3] -0.033 | [4] 0.014 | [5] 0.023
